Data as given in PMC8160739, “Mycobacterium tuberculosis Binds Human Serum Amyloid A, and the Interaction Modulates the Colonization of Human Macrophages and the Transcriptional Response of the Pathogen” (Cells, 2021).
Results are given in words; binding and its absence hold for the method and conditions named. Some entries that bind do so weakly or less than the wild type. Where a sequence is shown, tags or fusion partners need not be part of it.

Target: T1, recombinant Mycobacterium tuberculosis rABC (Mycobacterium tuberculosis H37Rv) (UniProt P9WQK3)
T1 sequence: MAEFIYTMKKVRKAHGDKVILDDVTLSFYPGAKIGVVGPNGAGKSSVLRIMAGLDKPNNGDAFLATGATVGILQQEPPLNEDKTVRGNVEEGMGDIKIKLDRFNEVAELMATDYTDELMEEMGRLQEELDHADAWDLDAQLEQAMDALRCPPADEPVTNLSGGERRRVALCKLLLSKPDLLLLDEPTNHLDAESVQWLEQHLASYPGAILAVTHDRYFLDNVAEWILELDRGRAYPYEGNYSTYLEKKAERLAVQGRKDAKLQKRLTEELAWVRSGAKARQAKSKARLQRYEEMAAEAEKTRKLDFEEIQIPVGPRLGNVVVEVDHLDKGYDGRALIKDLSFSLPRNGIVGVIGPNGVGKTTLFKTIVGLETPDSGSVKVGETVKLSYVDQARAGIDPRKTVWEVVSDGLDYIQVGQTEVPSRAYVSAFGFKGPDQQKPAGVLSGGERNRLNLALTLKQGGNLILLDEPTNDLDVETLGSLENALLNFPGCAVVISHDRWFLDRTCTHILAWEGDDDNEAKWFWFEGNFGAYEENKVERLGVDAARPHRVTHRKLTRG
Experiment: far-Western, overlay or dot blot; recombinant Mtb proteins separated by reducing SDS-PAGE (12% gel), transferred to nitrocellulose, incubated 2 h at room temperature with biotin-labeled SAA1 at 10 µg/mL in PBS/0.05% Tween 20/0.1% BSA; streptavidin-peroxidase detection; both purified

B1: biotin-labeled recombinant human SAA1 (natural protein, UniProt P0DJI8 19-122, looked up)
chain: RSFFSFLGEAFDGARDMWRAYSDMREANYIGSDKYFHARGNYDAAKRGPGGAWAAEVITDARENIQRFFGHGAEDSLADQAANEWGRSGKDPNHFRPAGLPEKY
modifications: biotin (Sulfo-NHS-biotin labeling; sites not stated)
notes: serum amyloid A1 (SAA1), human, recombinant, bought from Sigma Aldrich; Same bought protein as m1, biotinylated; detected with streptavidin-HRP; also called biotinylated SAA1; biotin-labeled human SAA1; source: bought: Sigma Aldrich (recombinant), labeled with EZ-Link Micro Sulfo-NHS-Biotinylation Kit
- binding: binds
